This is one part of the list. Values are raw readings; no control value is given beside them.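 First-pass screen: polymyxin B was added at a level that permeabilizes the Salmonella outer membrane while sparing the inner membrane. DMSO wells, with and without polymyxin B, defined maximum growth. Because plates differed from one another, each plate's data were ranked separately and the compounds with the lowest OD600 were carried forward as hits.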
System: Salmonella enterica serovar Typhimurium SL1344
Assay: bacterial growth OD600 after 18 h with compound and polymyxin B; higher = more bacterial growth (less inhibition)
Conditions: 50 µM, Mueller-Hinton broth

Row | Compound | bacterial growth OD600 (polymyxin B 0.75 µg/mL) | bacterial growth OD600 (polymyxin B 1 µg/mL)
1 | COC(=O)c1ccccc1C(=O)N1CCC(C(Cc2ccccc2)N(C)C(=O)c2ccoc2C)CC1 (stereo unspecified) | 1.01 | –
2 | COc1cccc(CN(C)Cc2nc(Cc3ccccc3Cl)no2)c1 | – | 0.619
3 | COc1ccc(O)c(CN2CCCC(c3[nH]ncc3-c3ccc(Cl)cc3)C2)c1 (stereo unspecified) | 0.398 | –
4 | COCCOC1CCN(c2nc3nonc3nc2NC2CCCC2)CC1 | – | 0.761
5 | COCCCC1CCN(Cc2nc(-c3cccc(Cl)c3)no2)CC1 | – | 1.02
6 | O=C1CCC(CCC(=O)N2CCCCC2)(Cc2ccc3ccccc3c2)N1 (stereo unspecified) | 1.01 | –
7 | Cc1ccccc1CNC(=O)c1ccc(OC2CCN(S(C)(=O)=O)CC2)c(Cl)c1 | – | 1.2
8 | O=C(CCc1ccc2c(c1)OCO2)NC1CCCN(c2ccc(C(F)(F)F)cn2)C1 (stereo unspecified) | – | 0.87
9 | CCOC(=O)C1(Cc2ccc(Cl)cc2)CCN(CCCn2cccn2)CC1 | – | 0.65
10 | Cc1ccccc1CC(C1CCN(C(=O)C(=O)CC(C)C)CC1)N(C)C(=O)Cn1cccn1 (stereo unspecified) | 0.832 | –
11 | COc1ccccc1OC1CCN(Cc2nc(-c3cccc(Cl)c3)no2)CC1 | – | 0.554
12 | CCO[C@H]1[C@H](NC(=O)c2cccnc2)c2ccccc2C12CCN(C(=O)C1=CCCC1)CC2 | 0.758 | –
13 | COc1cccc(-n2cc(CNC(=O)c3cn(C4CC4)cc(C(=O)NC4CCCCC4)c3=O)cn2)c1 | 0.012 | –
14 | Cc1ccc(Oc2ncccc2CNC(=O)Cc2ccncc2)c(F)c1F | – | 0.905
15 | OC1CCCN(c2ccc(-c3nc(COc4ccccc4)no3)cn2)C1 (stereo unspecified) | – | 0.771
16 | O=C(C1CCCCCC1)N1CCC2(CCCN(CC3CC3)C2=O)C1 (stereo unspecified) | – | 1.11

Given as tab-separated lines: 2 of the compounds above.
Row	Compound	bacterial growth OD600 (polymyxin B 0.75 µg/mL)	bacterial growth OD600 (polymyxin B 1 µg/mL)
1	COC(=O)c1ccccc1C(=O)N1CCC(C(Cc2ccccc2)N(C)C(=O)c2ccoc2C)CC1 (stereo unspecified)	1.01	–
2	COc1cccc(CN(C)Cc2nc(Cc3ccccc3Cl)no2)c1	–	0.619

Next part

Row | Compound | bacterial growth OD600 (polymyxin B 0.75 µg/mL) | bacterial growth OD600 (polymyxin B 1 µg/mL)
17 | CC(C)N1CCN(CC2(O)CCCN(Cc3cccc(F)c3F)C2=O)CC1 (stereo unspecified) | – | 1.01
18 | CC(C)(C)NC(=O)c1coc(COc2ccccc2)n1 | 0.74 | –
19 | CN(Cc1cnn(C)c1)c1ccc(-c2nc(COc3ccccc3)no2)cn1 | – | 0.656
20 | Cc1ccc(CNC(=O)c2cc(NC(=O)C3CCCO3)c3c(c2)nc(C2CCC2)n3C)cc1 (stereo unspecified) | 0.843 | –
21 | O=C(CCC1CCN(Cc2cccn2-c2cccnc2)CC1)NCC1CCCO1 (stereo unspecified) | 0.792 | –
22 | CCO[C@H]1[C@H](NC(=O)c2cccnc2)c2ccccc2C12CCN(C(=O)c1cc3ccccc3[nH]1)CC2 | 0.707 | –
23 | Cc1ccc(CC(C)N2CCC(n3nccc3NC(=O)CC(C)C)CC2)nc1 (stereo unspecified) | 0.78 | –
24 | COCC(=O)N1CCC2(CCCN(Cc3ccc(F)cc3)C2=O)C1 (stereo unspecified) | – | 1.08
25 | CCOc1ccc(CN2CCN(Cc3cccc(C)c3)CC2CCO)cc1 (stereo unspecified) | – | 0.872
26 | COc1ccc(OC)c(CN2CCC(C(Cc3ccccc3Cl)N(C)C(=O)c3ccco3)CC2)c1 (stereo unspecified) | 0.93 | –
27 | O=C(Nc1ccnn1C1CCN(CCCC2CCCC2)CC1)C1CCOC1 (stereo unspecified) | – | 1.03
28 | CCS(=O)(=O)Nc1cc(C(=O)NCC(C)Oc2cccnc2)c2c(c1)nc(-c1ccccc1)n2C (stereo unspecified) | 0.811 | –
29 | COCC1CCCCN1C(=O)CCc1nnc(Cc2cc(OC)ccc2OC)o1 (stereo unspecified) | – | 0.995
30 | O=C(c1ccc(F)c(F)c1)N1CCCC(Nc2ccc(F)cc2)C1 (stereo unspecified) | – | 0.827
31 | Cc1ccc(C)c(-n2cc(CN3CCC(C(N)=O)CC3)c(-c3ccccc3)n2)c1 | – | 0.97
